No constants are given. Whether binding was seen depends on the method and setting. In cells and extracts the contact can be indirect. A yes stands for co-enrichment or nearness to the bait. Other partners may have been found. For some assays here: No binding means not detected with the bait. For some assays here: Tags and fused reporters may be left off the sequences shown.
Columns and labels:
SFB-tagged ATF1 [1] = biological target: T1, SFB-tagged ATF1 (UniProt P18846); assay: affinity purification with mass spectrometry; TAP (streptavidin beads, biotin elution, S-protein beads; NETN buffer) of C-terminally SFB-tagged bait from HEK293T; chromatin fraction (pellet after NETN lysis, digested with TurboNuclease); forward and reciprocal purifications; some baits also after drug treatment
T1 sequence: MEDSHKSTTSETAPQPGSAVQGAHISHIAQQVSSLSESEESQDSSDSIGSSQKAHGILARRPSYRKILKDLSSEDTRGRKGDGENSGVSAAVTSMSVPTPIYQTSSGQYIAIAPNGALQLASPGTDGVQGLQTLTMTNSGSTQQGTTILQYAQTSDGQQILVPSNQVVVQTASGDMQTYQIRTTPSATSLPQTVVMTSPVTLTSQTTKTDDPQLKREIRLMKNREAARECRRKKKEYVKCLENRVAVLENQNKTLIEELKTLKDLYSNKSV

By UniProt entry, the sequences of proteins in these tests, tags left out.
UniProt Q9UKB1: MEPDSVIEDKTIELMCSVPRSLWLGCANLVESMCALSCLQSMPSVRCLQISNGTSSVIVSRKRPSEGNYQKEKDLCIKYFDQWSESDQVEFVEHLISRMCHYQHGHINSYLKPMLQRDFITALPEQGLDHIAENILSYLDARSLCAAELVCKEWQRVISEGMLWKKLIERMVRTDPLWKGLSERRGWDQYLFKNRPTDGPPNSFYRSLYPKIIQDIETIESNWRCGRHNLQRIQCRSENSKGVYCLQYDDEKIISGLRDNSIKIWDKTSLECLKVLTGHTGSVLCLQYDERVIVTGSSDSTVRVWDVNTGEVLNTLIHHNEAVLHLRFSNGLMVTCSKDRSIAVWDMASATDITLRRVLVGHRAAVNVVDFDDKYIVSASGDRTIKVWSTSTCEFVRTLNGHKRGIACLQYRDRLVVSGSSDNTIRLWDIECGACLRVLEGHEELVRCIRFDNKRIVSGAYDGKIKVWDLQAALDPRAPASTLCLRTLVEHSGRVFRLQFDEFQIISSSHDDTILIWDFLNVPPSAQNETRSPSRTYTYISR
UniProt P61244: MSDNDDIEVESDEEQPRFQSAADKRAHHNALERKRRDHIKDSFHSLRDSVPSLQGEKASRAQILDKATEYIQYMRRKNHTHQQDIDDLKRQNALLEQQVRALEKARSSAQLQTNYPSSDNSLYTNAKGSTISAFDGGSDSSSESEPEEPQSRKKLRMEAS
UniProt O75461: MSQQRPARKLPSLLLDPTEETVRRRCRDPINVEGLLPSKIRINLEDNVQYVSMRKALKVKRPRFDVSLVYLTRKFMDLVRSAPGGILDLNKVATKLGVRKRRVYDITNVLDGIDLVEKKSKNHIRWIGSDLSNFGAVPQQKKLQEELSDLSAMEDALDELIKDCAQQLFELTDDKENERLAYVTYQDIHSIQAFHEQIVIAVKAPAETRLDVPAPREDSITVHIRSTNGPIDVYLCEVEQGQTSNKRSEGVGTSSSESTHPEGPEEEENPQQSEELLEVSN
UniProt Q01167: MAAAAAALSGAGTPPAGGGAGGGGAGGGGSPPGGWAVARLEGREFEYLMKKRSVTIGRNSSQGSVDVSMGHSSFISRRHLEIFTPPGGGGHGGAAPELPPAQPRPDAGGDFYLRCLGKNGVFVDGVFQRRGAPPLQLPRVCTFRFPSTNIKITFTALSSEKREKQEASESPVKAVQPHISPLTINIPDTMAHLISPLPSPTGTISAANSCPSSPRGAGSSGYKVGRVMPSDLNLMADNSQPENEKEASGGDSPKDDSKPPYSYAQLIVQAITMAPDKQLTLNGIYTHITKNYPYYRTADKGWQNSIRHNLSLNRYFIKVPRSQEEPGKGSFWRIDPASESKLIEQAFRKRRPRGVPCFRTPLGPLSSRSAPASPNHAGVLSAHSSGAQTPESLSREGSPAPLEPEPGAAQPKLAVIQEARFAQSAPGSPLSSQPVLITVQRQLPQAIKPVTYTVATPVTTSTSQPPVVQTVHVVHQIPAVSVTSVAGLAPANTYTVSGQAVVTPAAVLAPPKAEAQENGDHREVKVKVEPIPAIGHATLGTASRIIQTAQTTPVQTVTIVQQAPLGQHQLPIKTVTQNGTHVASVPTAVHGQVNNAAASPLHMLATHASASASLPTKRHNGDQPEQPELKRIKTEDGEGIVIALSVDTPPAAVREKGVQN
UniProt Q969R5: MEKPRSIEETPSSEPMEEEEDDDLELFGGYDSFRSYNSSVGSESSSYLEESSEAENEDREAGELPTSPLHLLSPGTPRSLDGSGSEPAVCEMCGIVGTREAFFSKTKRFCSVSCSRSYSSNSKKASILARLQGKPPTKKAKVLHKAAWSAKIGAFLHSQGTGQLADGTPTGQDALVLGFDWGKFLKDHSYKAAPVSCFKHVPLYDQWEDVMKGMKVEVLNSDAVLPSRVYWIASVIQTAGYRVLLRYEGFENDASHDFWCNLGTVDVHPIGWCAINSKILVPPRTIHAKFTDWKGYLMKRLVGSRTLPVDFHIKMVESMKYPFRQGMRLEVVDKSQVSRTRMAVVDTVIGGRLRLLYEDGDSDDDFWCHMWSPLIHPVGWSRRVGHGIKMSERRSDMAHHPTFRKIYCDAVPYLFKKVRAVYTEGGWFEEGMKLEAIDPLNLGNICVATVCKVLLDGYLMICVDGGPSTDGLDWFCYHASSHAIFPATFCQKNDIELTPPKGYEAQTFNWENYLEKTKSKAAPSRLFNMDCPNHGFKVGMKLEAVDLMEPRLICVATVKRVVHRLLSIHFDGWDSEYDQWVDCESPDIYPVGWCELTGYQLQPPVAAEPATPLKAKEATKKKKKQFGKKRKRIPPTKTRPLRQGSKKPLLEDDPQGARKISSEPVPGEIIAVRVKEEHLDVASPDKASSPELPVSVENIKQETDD
UniProt P16220: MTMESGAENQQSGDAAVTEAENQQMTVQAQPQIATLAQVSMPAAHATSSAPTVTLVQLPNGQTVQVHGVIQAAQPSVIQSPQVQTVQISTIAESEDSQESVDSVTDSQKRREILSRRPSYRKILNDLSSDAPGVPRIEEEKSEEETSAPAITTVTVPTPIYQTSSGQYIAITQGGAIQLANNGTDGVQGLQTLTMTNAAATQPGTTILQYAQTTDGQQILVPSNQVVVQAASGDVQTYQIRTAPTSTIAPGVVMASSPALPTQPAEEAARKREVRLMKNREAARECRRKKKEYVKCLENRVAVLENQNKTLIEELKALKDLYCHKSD
UniProt P35222: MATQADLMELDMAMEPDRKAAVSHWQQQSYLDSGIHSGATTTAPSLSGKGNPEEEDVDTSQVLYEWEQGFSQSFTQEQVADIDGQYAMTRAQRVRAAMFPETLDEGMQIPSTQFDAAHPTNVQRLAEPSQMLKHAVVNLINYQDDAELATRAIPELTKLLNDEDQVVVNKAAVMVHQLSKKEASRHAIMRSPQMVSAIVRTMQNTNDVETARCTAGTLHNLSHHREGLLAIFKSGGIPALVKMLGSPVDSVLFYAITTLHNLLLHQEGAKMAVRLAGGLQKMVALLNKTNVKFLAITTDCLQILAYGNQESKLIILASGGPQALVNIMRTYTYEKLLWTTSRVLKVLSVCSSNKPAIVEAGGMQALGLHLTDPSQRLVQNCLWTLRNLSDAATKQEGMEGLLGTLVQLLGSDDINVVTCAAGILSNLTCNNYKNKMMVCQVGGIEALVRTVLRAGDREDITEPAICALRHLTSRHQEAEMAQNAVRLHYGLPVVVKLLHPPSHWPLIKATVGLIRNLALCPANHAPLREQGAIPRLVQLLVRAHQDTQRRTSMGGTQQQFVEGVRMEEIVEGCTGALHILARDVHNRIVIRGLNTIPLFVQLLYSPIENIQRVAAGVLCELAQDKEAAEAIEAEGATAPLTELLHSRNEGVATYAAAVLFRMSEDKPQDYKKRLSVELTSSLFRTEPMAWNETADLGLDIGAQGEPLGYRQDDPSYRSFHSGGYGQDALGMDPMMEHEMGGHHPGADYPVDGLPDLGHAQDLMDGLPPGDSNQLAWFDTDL
UniProt P35453: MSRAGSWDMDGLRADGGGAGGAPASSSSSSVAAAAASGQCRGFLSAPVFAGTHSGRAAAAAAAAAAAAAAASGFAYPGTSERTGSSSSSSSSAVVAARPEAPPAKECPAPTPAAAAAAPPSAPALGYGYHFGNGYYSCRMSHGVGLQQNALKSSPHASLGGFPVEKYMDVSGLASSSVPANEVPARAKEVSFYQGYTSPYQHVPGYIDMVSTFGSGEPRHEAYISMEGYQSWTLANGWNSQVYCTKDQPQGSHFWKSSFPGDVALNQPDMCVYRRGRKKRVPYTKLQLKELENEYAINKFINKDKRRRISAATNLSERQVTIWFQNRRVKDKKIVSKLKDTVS
UniProt P05412: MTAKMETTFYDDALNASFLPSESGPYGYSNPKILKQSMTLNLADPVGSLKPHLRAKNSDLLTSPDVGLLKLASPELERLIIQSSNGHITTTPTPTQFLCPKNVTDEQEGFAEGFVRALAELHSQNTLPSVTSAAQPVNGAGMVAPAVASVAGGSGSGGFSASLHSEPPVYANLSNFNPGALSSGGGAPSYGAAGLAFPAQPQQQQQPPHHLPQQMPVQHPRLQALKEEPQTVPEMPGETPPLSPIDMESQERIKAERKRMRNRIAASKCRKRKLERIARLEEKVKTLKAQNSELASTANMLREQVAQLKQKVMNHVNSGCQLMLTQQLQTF
UniProt Q5TKA1: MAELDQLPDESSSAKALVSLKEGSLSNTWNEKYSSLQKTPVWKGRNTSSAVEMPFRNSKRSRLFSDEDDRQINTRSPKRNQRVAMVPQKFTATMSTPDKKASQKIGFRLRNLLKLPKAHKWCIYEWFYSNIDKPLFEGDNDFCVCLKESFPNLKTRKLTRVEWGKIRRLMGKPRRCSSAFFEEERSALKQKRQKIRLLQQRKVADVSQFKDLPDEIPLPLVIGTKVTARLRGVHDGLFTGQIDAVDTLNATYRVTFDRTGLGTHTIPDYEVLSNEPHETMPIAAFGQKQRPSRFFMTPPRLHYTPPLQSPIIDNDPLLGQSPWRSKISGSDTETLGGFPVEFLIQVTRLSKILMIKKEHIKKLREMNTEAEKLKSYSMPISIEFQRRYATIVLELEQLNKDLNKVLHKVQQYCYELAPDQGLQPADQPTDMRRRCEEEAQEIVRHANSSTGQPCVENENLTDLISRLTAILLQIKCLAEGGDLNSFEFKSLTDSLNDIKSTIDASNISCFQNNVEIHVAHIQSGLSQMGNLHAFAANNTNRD
UniProt Q96GY3: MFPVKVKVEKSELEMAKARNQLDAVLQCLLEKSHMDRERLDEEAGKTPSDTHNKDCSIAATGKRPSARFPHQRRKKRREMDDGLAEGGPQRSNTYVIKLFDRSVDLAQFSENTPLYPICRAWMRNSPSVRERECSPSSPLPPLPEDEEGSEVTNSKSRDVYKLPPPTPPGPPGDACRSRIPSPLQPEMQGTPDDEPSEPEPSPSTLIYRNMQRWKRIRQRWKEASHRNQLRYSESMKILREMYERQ
UniProt Q6MZP7: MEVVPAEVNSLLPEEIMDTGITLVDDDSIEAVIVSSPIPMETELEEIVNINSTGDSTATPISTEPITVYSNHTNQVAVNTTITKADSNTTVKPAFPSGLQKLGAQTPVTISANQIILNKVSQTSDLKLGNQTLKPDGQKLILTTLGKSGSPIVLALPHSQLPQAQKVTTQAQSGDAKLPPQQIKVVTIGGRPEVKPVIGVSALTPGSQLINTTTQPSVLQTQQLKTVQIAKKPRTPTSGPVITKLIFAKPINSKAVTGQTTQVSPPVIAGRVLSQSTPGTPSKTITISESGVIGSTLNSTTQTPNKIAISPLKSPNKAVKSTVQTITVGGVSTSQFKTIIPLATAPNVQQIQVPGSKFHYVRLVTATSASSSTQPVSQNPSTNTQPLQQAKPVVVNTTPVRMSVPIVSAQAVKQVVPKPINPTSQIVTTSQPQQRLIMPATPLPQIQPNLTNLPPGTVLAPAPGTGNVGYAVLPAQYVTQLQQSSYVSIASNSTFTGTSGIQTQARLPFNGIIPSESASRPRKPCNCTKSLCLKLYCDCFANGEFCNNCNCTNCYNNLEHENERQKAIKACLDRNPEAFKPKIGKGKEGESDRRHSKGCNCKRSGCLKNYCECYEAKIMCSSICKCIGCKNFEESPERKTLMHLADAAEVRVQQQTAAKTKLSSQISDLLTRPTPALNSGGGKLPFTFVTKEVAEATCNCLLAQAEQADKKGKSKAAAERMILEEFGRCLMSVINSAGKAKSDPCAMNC
UniProt P63208: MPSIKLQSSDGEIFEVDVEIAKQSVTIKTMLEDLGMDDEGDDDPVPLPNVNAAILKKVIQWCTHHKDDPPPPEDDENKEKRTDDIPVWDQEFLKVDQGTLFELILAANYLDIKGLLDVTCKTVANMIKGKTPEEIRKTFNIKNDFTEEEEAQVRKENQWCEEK
UniProt Q9Y297: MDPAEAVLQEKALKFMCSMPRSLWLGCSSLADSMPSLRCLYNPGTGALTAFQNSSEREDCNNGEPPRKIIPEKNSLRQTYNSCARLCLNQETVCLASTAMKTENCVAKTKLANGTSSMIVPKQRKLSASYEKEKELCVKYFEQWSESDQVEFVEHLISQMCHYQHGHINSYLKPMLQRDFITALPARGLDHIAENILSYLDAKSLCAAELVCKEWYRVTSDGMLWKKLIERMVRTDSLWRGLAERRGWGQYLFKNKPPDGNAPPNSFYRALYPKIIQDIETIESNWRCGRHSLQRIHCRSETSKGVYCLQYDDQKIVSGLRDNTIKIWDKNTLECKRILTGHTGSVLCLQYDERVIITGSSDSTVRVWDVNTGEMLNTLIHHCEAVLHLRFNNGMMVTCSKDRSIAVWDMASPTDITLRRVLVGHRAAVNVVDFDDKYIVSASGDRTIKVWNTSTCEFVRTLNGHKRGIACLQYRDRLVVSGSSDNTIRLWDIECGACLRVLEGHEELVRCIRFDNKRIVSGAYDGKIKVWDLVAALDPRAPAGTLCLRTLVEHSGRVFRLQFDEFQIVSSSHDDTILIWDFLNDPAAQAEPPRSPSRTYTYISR

[2] = biological target: T2, SFB-tagged NFATC1 (human) (UniProt O95644); assay: as above
T2 sequence: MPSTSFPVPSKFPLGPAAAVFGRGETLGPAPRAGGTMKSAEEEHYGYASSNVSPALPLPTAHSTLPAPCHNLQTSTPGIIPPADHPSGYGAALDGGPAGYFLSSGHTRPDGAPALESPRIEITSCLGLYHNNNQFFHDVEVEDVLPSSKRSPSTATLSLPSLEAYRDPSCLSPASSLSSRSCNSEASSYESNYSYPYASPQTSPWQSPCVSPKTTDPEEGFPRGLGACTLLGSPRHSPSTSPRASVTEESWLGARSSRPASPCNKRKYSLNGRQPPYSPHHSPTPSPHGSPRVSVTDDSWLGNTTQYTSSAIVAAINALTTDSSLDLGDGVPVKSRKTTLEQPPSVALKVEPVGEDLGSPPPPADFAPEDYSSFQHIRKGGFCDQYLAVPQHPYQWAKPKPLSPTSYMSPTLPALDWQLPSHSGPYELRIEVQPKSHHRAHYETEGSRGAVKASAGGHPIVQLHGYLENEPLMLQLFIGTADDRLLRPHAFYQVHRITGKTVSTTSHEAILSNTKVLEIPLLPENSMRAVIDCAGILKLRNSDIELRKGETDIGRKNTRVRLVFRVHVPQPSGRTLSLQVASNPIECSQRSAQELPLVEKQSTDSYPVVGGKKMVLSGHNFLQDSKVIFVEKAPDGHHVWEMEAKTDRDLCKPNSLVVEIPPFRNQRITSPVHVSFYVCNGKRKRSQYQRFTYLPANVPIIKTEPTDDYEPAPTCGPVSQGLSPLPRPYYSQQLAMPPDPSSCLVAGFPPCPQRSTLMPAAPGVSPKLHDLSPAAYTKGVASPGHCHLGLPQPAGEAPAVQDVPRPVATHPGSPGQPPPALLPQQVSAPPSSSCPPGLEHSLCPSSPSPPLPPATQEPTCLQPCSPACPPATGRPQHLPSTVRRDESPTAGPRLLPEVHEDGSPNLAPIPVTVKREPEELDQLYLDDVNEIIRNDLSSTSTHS

[3] = biological target: T3, NFATC2 as bait of the reciprocal TAP/MS (UniProt Q13469); assay: as above
T3 sequence: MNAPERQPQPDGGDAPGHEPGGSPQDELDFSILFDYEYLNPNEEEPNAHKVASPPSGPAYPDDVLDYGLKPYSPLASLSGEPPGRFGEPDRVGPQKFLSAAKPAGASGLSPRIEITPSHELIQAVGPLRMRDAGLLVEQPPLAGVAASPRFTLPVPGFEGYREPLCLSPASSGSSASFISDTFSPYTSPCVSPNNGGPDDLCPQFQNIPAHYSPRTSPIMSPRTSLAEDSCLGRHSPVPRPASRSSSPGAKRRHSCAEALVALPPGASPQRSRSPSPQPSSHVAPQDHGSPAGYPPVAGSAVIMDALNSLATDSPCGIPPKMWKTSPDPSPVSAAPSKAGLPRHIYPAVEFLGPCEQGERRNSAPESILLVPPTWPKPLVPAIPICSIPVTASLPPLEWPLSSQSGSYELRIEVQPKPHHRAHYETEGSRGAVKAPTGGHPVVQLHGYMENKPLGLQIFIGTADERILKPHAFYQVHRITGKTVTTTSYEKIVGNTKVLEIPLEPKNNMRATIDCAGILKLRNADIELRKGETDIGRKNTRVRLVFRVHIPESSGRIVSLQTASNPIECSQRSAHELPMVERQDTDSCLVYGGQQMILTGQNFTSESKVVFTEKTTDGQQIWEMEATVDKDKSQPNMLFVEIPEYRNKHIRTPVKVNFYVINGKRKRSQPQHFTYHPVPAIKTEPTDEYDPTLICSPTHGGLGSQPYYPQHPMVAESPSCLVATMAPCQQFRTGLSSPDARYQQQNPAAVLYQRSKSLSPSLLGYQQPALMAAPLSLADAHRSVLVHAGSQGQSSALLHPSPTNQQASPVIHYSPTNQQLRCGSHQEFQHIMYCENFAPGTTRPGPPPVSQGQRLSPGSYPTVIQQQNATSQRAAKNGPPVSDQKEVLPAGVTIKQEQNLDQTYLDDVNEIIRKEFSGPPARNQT

SFB-tagged ATF1 [4] = biological target: T1, SFB-tagged ATF1; assay: affinity purification with mass spectrometry; TAP (streptavidin beads, biotin elution, S-protein beads; NETN buffer) of C-terminally SFB-tagged bait from HEK293T; soluble fraction (supernatant of the NETN lysate); forward and reciprocal purifications
[5] = biological target: T2, SFB-tagged NFATC1 (human); assay: as above
[6] = biological target: T3, NFATC2 as bait of the reciprocal TAP/MS; assay: as above
[7] = biological target: βTRCP2/FBXW11 as bait of the reciprocal TAP/MS (UniProt Q9UKB1); assay: affinity purification with mass spectrometry; same TAP/MS of SFB-tagged bait from HEK293T; the fraction in which the hit was found is not given
SFB-tagged MAX (human) = SFB-tagged MAX (human) (UniProt P61244); assay: affinity purification with mass spectrometry; TAP (streptavidin beads, biotin elution, S-protein beads; NETN buffer) of C-terminally SFB-tagged bait from HEK293T; chromatin fraction (pellet after NETN lysis, digested with TurboNuclease); forward and reciprocal purifications; some baits also after drug treatment
SFB-tagged FOXM1 (human) [8] = biological target: T4, SFB-tagged FOXM1 (human) (UniProt Q08050); assay: as above
T4 sequence: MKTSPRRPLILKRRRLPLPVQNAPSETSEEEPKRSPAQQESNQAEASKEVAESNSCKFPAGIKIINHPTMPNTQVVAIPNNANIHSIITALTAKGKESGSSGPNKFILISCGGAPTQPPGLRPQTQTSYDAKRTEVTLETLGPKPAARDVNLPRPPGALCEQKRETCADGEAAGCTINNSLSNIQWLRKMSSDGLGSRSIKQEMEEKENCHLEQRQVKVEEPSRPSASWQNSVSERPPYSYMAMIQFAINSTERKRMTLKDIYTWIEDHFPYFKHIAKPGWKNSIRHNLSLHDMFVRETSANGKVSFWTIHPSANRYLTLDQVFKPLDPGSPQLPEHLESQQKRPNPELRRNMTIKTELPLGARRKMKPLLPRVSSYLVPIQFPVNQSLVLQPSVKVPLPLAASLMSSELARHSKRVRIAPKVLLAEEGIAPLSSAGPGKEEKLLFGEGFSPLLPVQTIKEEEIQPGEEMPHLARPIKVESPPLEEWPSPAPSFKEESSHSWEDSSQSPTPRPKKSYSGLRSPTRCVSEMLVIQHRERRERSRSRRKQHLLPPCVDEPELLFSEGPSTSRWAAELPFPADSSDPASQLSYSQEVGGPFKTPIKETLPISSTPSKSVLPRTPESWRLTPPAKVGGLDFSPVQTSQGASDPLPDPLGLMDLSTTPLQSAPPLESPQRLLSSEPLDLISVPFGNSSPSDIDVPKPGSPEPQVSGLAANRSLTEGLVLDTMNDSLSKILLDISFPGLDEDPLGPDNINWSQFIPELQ

SFB-tagged FOXM1 (human) [9] = biological target: T4, SFB-tagged FOXM1 (human); assay: affinity purification with mass spectrometry; TAP (streptavidin beads, biotin elution, S-protein beads; NETN buffer) of C-terminally SFB-tagged bait from HEK293T; soluble fraction (supernatant of the NETN lysate); forward and reciprocal purifications
[10] = biological target: E2F6 as bait of the reciprocal TAP/MS (UniProt O75461); assay: affinity purification with mass spectrometry; TAP (streptavidin beads, biotin elution, S-protein beads; NETN buffer) of C-terminally SFB-tagged bait from HEK293T; chromatin fraction (pellet after NETN lysis, digested with TurboNuclease); forward and reciprocal purifications; some baits also after drug treatment
SFB-tagged FOXK2 (human) = SFB-tagged FOXK2 (human) (UniProt Q01167); assay: as above
[11] = biological target: L3MBTL2 as bait of the reciprocal TAP/MS (UniProt Q969R5); assay: affinity purification with mass spectrometry; TAP (streptavidin beads, biotin elution, S-protein beads; NETN buffer) of C-terminally SFB-tagged bait from HEK293T; soluble fraction (supernatant of the NETN lysate); forward and reciprocal purifications
SFB-tagged FOXN2 (human) = biological target: T5, SFB-tagged FOXN2 (human) (UniProt P32314); assay: as above
T5 sequence: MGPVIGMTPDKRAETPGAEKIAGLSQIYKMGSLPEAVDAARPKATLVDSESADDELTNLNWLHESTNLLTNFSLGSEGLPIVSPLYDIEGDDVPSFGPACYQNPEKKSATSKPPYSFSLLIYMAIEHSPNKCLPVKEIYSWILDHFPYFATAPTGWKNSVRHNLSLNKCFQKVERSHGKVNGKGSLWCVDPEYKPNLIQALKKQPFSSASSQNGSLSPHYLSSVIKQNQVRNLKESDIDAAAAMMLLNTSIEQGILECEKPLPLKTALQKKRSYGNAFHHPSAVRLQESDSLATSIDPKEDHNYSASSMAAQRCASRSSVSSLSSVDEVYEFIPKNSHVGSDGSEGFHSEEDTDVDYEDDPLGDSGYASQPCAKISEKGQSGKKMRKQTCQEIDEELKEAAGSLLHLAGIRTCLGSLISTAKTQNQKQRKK

CREB1 (endogenous) (from UniProt P16220 1-327)
binding (SFB-tagged ATF1 [1]): binds
binding [2]: binds
binding [3]: binds
binding (SFB-tagged ATF1 [4]): binds
binding [5]: no binding (only in the soluble fraction)
binding [6]: no binding (only in the soluble fraction)

CTNNB1 (endogenous) (from UniProt P35222 1-781)
binding [7]: binds

E2F6 (endogenous) (from UniProt O75461 1-281)
binding (SFB-tagged MAX (human)): binds

EPRS (endogenous) (from UniProt P07814 1-1512)
binding (SFB-tagged FOXM1 (human) [8]): no binding (only in the chromatin fraction)
binding (SFB-tagged FOXM1 (human) [9]): binds

FOXK2 (endogenous) (from UniProt Q01167 1-660)
binding (SFB-tagged MAX (human)): binds

HOXD13 (endogenous) (from UniProt P35453 1-343)
binding [2]: binds

JUN (endogenous) (from UniProt P05412 1-331)
binding [2]: binds

L3MBTL2 (endogenous) (from UniProt Q969R5 1-705)
binding (SFB-tagged MAX (human)): binds

LIN9 (endogenous) (from UniProt Q5TKA1 1-542)
binding (SFB-tagged FOXM1 (human) [8]): binds
binding (SFB-tagged FOXM1 (human) [9]): no binding (only in the soluble fraction)

LIN37 (endogenous) (from UniProt Q96GY3 1-246)
binding (SFB-tagged FOXM1 (human) [8]): binds
binding (SFB-tagged FOXM1 (human) [9]): no binding (only in the soluble fraction)

LIN54 (endogenous) (from UniProt Q6MZP7 1-749)
binding (SFB-tagged FOXM1 (human) [8]): binds
binding (SFB-tagged FOXM1 (human) [9]): no binding (only in the soluble fraction)

MAX (endogenous) (from UniProt P61244 1-160)
binding [10]: binds
binding (SFB-tagged FOXK2 (human)): binds
binding [11]: binds

MYBL2 (endogenous) (from UniProt P10244 1-700)
binding (SFB-tagged FOXM1 (human) [8]): binds
binding (SFB-tagged FOXM1 (human) [9]): no binding (only in the soluble fraction)

SKP1 (endogenous) (from UniProt P63208 1-163)
binding [7]: binds
binding (SFB-tagged FOXN2 (human)): binds

βTRCP2 (endogenous) (from UniProt Q9UKB1 1-542)
binding (SFB-tagged FOXN2 (human)): binds

βTRCP (endogenous) (from UniProt Q9Y297 1-605)
binding (SFB-tagged FOXN2 (human)): binds
